This is one part of the list.
Compound: C/C(=N\NC(=O)C1=CC(=CC=C1)S(=O)(=O)N2CCOCC2)/C3=C(C=CC(=C3)Cl)O
Assay: log2 fold change, soluble protein after heating vs DMSO (PISA); higher = thermal stabilisation; K562 cells, 10 uM, 30 min; active = over 0.2 and 3.5 SD of the protein, either way, in both replicates (recomputed)
Summary of the method: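 Values are thermal stability changes relative to control samples and are taken from duplicates. They are stated as log2 fold changes. Before quantification by TMTpro 16plex LC-MS/MS with equalised channel sums, K562 cells at 2×10^6 cells/mL were treated with 10 μM compound for 30 min, heated in aliquots for 3 min across 48°C-58°C, pooled, extracted in PBS with 0.5% NP-40 at 4°C, and centrifuged at 21,000xg for 90 min to give the soluble supernatant.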

By UniProt entry, the sequences of proteins in these tests, tags left out. Where a name states a change or a piece, a line headed by the entry shows the natural chain unless it says otherwise.
UniProt Q99543: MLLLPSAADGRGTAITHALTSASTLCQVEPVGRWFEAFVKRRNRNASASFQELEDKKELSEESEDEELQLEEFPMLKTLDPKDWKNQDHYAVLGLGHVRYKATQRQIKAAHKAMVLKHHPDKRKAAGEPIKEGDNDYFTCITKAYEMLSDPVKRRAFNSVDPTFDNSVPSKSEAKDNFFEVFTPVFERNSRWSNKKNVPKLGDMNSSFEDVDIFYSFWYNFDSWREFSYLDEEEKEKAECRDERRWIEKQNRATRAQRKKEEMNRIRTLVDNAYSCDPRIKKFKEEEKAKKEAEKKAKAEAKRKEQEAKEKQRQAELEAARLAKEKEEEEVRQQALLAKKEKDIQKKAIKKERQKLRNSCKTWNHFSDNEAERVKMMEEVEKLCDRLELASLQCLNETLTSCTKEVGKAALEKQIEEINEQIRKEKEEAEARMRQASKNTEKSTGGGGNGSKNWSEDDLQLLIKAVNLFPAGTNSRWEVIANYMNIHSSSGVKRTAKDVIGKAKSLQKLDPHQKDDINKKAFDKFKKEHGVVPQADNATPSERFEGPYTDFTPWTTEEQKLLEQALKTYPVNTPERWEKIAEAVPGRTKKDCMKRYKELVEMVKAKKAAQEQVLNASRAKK
UniProt Q16610: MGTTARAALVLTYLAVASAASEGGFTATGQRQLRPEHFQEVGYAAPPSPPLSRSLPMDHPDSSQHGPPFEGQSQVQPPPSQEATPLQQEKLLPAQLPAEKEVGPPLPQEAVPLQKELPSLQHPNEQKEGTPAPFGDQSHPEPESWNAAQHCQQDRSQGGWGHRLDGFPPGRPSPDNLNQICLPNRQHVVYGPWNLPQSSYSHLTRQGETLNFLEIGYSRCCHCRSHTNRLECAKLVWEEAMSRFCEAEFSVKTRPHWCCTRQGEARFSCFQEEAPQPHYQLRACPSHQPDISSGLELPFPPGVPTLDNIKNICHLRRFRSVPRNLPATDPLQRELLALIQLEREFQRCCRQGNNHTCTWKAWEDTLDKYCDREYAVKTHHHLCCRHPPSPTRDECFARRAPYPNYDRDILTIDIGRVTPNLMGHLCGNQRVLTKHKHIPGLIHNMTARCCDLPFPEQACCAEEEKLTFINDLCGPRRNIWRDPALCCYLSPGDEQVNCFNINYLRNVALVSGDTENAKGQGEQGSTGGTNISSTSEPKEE
UniProt P60981: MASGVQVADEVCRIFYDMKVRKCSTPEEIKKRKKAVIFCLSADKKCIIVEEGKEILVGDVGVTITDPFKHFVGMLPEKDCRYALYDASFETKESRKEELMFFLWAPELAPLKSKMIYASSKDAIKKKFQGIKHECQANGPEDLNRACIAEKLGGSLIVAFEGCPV
UniProt Q96N67: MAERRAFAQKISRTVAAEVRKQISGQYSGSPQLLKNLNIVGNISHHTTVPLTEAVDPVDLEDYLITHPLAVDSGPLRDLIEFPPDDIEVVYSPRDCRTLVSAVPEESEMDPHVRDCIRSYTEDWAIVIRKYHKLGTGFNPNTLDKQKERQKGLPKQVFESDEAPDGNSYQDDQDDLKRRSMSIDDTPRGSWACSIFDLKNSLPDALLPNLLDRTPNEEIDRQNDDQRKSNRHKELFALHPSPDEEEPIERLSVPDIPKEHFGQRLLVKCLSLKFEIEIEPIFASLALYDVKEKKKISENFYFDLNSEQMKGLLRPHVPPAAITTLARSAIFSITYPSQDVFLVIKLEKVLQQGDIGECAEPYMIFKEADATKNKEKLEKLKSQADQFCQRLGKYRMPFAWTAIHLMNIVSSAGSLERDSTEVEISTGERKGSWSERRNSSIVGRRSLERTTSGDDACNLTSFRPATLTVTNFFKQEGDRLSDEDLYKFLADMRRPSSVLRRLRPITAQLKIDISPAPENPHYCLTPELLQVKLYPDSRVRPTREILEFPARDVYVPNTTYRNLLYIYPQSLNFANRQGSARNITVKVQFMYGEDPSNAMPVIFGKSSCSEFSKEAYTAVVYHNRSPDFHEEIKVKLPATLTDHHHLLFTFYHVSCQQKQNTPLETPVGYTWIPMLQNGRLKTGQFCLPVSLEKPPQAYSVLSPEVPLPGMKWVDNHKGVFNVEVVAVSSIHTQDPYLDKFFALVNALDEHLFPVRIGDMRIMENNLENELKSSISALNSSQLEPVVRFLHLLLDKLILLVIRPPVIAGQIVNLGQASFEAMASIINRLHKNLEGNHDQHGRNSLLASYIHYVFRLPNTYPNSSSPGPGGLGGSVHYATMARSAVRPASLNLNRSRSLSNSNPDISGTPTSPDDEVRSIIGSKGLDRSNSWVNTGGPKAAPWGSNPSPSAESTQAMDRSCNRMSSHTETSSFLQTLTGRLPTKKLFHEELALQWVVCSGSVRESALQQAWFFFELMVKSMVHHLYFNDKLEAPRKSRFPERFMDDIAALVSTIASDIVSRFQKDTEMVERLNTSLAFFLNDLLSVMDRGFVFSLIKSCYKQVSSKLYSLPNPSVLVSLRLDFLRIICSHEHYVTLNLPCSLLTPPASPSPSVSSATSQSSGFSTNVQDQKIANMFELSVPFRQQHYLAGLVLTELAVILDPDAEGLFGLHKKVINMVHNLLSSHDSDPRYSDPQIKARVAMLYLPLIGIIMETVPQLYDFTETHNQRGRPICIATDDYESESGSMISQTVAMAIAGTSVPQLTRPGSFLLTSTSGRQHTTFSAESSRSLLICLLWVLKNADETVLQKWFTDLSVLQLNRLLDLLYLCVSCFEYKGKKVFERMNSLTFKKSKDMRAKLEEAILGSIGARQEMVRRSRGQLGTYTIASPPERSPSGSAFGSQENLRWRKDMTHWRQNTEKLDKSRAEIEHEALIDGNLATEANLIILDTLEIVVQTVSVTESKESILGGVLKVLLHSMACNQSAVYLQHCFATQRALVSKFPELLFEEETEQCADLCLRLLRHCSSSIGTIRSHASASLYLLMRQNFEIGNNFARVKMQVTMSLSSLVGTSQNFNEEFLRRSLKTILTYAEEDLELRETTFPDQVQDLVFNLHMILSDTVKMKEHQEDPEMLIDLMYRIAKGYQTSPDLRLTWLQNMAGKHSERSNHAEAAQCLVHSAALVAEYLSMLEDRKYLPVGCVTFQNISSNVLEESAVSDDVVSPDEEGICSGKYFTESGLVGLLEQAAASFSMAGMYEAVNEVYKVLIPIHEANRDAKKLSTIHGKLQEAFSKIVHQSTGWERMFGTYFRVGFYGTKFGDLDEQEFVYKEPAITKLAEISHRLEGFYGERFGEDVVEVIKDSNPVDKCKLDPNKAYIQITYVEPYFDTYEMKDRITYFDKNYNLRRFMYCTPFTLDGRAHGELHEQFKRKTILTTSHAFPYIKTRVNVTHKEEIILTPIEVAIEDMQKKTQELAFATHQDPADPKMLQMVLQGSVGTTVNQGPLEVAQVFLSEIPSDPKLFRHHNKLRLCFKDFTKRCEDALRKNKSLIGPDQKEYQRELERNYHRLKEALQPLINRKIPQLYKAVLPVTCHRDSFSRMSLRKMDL
UniProt Q8TBM8: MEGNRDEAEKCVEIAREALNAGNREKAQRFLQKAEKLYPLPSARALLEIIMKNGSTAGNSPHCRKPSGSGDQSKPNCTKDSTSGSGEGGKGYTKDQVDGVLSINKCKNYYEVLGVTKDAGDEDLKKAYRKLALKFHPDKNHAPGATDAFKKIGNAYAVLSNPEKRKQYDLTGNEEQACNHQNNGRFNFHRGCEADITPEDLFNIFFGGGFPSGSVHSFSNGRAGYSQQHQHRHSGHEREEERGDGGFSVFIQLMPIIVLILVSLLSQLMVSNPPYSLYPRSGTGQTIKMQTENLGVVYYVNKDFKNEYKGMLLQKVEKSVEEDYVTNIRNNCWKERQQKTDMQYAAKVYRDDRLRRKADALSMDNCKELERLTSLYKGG
UniProt Q9NVM6: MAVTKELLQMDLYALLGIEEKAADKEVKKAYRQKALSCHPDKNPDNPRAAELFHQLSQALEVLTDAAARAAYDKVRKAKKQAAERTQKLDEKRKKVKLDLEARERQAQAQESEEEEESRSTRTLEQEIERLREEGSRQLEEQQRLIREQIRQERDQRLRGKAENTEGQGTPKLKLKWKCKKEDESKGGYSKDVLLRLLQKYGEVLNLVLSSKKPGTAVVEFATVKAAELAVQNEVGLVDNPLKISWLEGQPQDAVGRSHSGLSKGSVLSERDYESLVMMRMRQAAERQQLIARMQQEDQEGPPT
UniProt Q9UDY4: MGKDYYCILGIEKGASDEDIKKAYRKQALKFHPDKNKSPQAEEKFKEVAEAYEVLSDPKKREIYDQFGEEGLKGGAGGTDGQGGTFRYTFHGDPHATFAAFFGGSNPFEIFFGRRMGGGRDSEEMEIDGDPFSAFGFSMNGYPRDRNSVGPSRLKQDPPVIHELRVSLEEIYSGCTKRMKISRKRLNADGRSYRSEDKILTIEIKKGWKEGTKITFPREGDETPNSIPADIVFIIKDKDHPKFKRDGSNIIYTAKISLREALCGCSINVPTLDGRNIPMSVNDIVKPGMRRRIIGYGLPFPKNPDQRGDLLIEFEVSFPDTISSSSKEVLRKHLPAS
UniProt Q9BZ29: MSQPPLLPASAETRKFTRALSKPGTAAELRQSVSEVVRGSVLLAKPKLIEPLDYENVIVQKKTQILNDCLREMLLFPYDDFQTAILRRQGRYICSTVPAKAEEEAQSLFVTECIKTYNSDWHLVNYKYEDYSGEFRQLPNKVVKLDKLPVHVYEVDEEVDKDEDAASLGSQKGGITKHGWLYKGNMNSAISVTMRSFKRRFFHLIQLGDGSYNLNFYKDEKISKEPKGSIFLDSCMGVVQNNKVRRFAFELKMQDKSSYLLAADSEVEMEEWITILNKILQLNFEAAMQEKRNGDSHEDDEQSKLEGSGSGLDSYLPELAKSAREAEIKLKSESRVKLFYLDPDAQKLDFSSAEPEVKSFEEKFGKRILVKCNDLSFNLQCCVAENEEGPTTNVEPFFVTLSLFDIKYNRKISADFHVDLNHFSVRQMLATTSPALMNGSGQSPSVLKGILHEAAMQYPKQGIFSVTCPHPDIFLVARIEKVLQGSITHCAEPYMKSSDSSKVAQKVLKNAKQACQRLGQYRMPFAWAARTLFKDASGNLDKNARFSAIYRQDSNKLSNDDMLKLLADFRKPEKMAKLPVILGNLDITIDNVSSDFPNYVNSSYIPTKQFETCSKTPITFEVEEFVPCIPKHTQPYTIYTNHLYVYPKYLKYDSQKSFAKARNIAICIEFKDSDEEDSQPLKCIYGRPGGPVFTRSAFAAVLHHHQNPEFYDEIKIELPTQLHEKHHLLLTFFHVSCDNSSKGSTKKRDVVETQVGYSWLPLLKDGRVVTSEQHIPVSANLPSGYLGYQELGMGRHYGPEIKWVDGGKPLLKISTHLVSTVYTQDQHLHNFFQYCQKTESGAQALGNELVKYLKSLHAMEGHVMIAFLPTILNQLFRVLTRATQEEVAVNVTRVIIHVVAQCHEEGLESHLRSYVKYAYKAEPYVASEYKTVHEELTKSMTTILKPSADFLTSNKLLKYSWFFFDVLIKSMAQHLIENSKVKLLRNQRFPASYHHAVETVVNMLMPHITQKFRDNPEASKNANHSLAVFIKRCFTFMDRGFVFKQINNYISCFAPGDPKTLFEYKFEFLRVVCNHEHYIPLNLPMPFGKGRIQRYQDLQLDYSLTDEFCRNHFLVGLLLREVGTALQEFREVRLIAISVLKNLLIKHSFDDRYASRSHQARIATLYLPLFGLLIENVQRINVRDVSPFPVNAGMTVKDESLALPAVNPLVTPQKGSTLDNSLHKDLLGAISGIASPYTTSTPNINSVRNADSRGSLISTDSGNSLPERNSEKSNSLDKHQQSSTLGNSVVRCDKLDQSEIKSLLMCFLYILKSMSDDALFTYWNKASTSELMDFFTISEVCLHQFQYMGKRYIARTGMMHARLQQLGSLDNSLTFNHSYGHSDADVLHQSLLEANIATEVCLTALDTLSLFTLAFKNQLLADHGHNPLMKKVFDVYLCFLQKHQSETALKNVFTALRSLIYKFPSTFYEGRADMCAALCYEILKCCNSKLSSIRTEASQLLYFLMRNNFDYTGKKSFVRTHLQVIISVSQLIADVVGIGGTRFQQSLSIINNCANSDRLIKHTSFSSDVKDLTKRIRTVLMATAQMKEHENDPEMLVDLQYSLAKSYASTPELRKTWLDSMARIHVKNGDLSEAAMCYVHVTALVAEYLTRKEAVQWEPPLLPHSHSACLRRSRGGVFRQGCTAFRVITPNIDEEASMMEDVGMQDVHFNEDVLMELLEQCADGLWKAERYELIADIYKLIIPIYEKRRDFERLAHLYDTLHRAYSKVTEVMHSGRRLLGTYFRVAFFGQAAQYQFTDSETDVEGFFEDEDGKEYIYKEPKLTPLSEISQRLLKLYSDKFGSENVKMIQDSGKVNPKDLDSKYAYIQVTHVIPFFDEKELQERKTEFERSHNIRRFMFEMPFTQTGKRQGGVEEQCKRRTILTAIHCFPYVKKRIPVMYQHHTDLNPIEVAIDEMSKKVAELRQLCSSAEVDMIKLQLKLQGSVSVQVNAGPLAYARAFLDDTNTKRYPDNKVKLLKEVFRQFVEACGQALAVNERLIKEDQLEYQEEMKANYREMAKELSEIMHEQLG

log2 fold change, inactive:
DNAJC13 (UniProt O75165) 0.104
DYRK1A isoform 2 (UniProt Q13627) 0.039
DRAP1 isoform 2 (UniProt Q14919) 0.002
E2F4 (UniProt Q16254) -0.003
DNAJC2 (UniProt Q99543) -0.012
DNAJC5 (UniProt Q9H3Z4) -0.16
EDEM1 (UniProt Q92611) -0.113
DNAJC7 (UniProt Q99615) 0.065
DNASE2 (UniProt O00115) 0.008
ECM1 isoform 4 (UniProt Q16610) 0.005
DUT (UniProt P33316) 0.015
EDC4 (UniProt Q6P2E9) 0.1
DSTN (UniProt P60981) -0.019
DOCK7 (UniProt Q96N67) -0.004
DSC2 (UniProt Q02487) -0.039
DUSP3 (UniProt P51452) 0.064
DPH7 (UniProt Q9BTV6) -0.034
DRG1 (UniProt Q9Y295) -0.03
EDC3 (UniProt Q96F86) 0.156
ECH1 (UniProt Q13011) 0.053
DNAJB14 (UniProt Q8TBM8) 0.116
DST (UniProt Q03001) -0.181
DSG2 (UniProt Q14126) 0.021
DNAJC17 (UniProt Q9NVM6) 0.014
DPM3 isoform 2 (UniProt Q9P2X0) 0.132
DNAJB4 (UniProt Q9UDY4) 0.009
EDF1 (UniProt O60869) 0.012
ECE1 (UniProt P42892) 0.171
DNAJB11 (UniProt Q9UBS4) -0.052
DR1 (UniProt Q01658) 0.026
DNLZ (UniProt Q5SXM8) 0.011
DOCK9 isoform 4 (UniProt Q9BZ29) 0.049
DPH1 (UniProt Q9BZG8) 0.081

Copied from the results shown for reference:
log2 fold change, inactive:
DYRK1A isoform 2 (UniProt Q13627) 0.039
DRAP1 isoform 2 (UniProt Q14919) 0.002

— the supplement of paper PMC10849652
